# Data as given in PubChem BioAssay AID1259308 (NCATS, 2017).
# Purpose: 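Genes whose loss raises luciferase production in HEK293 cells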 (primary screen)
# Cells: human HEK293 embryonic kidney cells stably expressing firefly luciferase (HEK-CMV-Luc2-Hygro)
# Knock-down reagent: single siRNA against human genes, 0.8 pmol siRNA per well
# Duration: 72 h
# Detection: 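Reporter luminescence and viable-cell signal on separate replicate plates, given as percent of non-targeting control and median/MAD z-scores, plus per-cell luciferase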
# Direction: total luciferase, z-score and total luciferase, % of control: higher = more reporter protein produced; luciferase per cell, z-score: higher = more reporter output per viable cell; viable cells, % of control: higher = more viable cells
# Call rule: 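Active when the median/MAD z-score for overall luciferase is greater than 3; a gene was taken forward for validation with new siRNAs if at least two of its three siRNAs passed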
# Meaning of the calls: active = raised luciferase; inactive = no rise
# Here is an unselected part of about 59,000 deposited reagents. Over the whole deposit, about 1,510 (2.6%) were called active. 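Calls use total luciferase alone and ignore viability, so some active siRNAs may act by altering cell number.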 The numbers tell different reagents against one gene apart.
The opening 2 records as a preview:
gene,reagent,"total luciferase, z-score","total luciferase, % of control","luciferase per cell, z-score","viable cells, % of control",Call
ATL2,1,0.585,93.5,0.985,80.6,inactive
ATL2,2,-0.361,74.7,-0.168,87.3,inactive

The listing, repeating the preview:
gene,reagent,"total luciferase, z-score","total luciferase, % of control","luciferase per cell, z-score","viable cells, % of control",Call
ATL2,1,0.585,93.5,0.985,80.6,inactive
ATL2,2,-0.361,74.7,-0.168,87.3,inactive
ATL2,3,-0.269,76.5,0.152,82.2,inactive
C6orf47,1,0.622,94.3,0.468,93.1,inactive
C6orf47,2,-1.95,43,-1.07,63.7,inactive
C6orf47,3,0.573,93.3,1.61,68.3,inactive
DOCK10,1,0.444,90.7,-0.0851,104,inactive
DOCK10,2,-1.84,45.3,-1.31,71.5,inactive
DOCK10,3,0.492,91.7,1.35,71.9,inactive
ZNF579,1,-1.24,57.3,-1.48,94.6,inactive
ZNF579,2,0.355,89,-0.296,107,inactive
ZNF579,3,-0.573,70.5,-0.272,84.6,inactive
VDR,1,0.838,98.6,0.362,100,inactive
VDR,2,0.369,89.2,0.295,92.3,inactive
VDR,3,0.611,94,1.5,70.7,inactive
TUFM,1,0.0358,82.6,-0.215,97.7,inactive
TUFM,2,0.24,86.7,-0.0732,98.7,inactive
TUFM,3,0.928,100,0.47,99.1,inactive
TMEM106C,1,-0.252,76.9,1.1,64.3,inactive
TMEM106C,2,0.684,95.5,1.07,80.5,inactive
TMEM106C,3,-1.18,58.4,-1.13,87.8,inactive
PTPN11P4,1,-0.0896,80.1,0.168,85.6,inactive
PTPN11P4,2,-0.87,64.6,-0.411,80.4,inactive
PTPN11P4,3,-0.0379,81.1,-0.226,96.2,inactive
GFM2,1,2.51,132,1.43,101,inactive
GFM2,2,-0.885,64.3,-1.4,104,inactive
GFM2,3,-0.0895,80.1,-0.568,104,inactive
AHSA1,1,0.643,94.7,0.621,89.8,inactive
AHSA1,2,-1.66,48.9,-0.794,67.3,inactive
AHSA1,3,-1.27,56.7,-0.607,74.3,inactive
ACP5,1,0.618,94.2,0.675,88.1,inactive
ACP5,2,0.118,84.2,-0.649,112,inactive
ACP5,3,-0.519,71.6,-1.25,111,inactive
CFAP73,1,0.387,89.6,0.146,96.3,inactive
CFAP73,2,0.0524,82.9,-0.838,116,inactive
CFAP73,3,0.94,101,-0.219,119,inactive
PRG2,1,-0.283,76.3,-0.391,94.5,inactive
PRG2,2,0.452,90.9,0.571,87.4,inactive
PRG2,3,1.8,118,2,77.7,inactive
ZFYVE16,1,1.38,109,0.419,109,inactive
ZFYVE16,2,-0.369,74.6,0.486,73.3,inactive
ZFYVE16,3,1.62,114,1.39,88.5,inactive
PLCE1,1,-0.335,75.2,-0.661,100,inactive
PLCE1,2,-1.29,56.3,-1.34,89.4,inactive
PLCE1,3,1.12,104,0.53,101,inactive
CNKSR3,1,0.897,99.7,0.706,92.5,inactive
CNKSR3,2,2.04,122,1.14,101,inactive
CNKSR3,3,2.32,128,2.55,73.1,inactive
GNMT,1,-0.204,77.8,-0.179,91.2,inactive
GNMT,2,0.0169,82.2,-0.54,106,inactive
GNMT,3,-1.46,52.8,-1.26,82.3,inactive
ANKIB1,1,-1.02,61.6,-1.7,108,inactive
ANKIB1,2,-0.682,68.3,-0.854,95.6,inactive
ANKIB1,3,0.284,87.5,1.66,63.2,inactive
HCRTR1,1,1.01,102,0.543,98.8,inactive
HCRTR1,2,0.238,86.6,1.15,71.6,inactive
HCRTR1,3,-0.967,62.7,-1.34,99.8,inactive
